Source: article PMC8989540
Results are given in words; binding and its absence hold for the method and conditions named. In cells and extracts the contact can be indirect. Some entries that bind do so weakly or less than the wild type.

By UniProt entry, the sequences of proteins in these tests, tags left out.
UniProt Q6PDQ2: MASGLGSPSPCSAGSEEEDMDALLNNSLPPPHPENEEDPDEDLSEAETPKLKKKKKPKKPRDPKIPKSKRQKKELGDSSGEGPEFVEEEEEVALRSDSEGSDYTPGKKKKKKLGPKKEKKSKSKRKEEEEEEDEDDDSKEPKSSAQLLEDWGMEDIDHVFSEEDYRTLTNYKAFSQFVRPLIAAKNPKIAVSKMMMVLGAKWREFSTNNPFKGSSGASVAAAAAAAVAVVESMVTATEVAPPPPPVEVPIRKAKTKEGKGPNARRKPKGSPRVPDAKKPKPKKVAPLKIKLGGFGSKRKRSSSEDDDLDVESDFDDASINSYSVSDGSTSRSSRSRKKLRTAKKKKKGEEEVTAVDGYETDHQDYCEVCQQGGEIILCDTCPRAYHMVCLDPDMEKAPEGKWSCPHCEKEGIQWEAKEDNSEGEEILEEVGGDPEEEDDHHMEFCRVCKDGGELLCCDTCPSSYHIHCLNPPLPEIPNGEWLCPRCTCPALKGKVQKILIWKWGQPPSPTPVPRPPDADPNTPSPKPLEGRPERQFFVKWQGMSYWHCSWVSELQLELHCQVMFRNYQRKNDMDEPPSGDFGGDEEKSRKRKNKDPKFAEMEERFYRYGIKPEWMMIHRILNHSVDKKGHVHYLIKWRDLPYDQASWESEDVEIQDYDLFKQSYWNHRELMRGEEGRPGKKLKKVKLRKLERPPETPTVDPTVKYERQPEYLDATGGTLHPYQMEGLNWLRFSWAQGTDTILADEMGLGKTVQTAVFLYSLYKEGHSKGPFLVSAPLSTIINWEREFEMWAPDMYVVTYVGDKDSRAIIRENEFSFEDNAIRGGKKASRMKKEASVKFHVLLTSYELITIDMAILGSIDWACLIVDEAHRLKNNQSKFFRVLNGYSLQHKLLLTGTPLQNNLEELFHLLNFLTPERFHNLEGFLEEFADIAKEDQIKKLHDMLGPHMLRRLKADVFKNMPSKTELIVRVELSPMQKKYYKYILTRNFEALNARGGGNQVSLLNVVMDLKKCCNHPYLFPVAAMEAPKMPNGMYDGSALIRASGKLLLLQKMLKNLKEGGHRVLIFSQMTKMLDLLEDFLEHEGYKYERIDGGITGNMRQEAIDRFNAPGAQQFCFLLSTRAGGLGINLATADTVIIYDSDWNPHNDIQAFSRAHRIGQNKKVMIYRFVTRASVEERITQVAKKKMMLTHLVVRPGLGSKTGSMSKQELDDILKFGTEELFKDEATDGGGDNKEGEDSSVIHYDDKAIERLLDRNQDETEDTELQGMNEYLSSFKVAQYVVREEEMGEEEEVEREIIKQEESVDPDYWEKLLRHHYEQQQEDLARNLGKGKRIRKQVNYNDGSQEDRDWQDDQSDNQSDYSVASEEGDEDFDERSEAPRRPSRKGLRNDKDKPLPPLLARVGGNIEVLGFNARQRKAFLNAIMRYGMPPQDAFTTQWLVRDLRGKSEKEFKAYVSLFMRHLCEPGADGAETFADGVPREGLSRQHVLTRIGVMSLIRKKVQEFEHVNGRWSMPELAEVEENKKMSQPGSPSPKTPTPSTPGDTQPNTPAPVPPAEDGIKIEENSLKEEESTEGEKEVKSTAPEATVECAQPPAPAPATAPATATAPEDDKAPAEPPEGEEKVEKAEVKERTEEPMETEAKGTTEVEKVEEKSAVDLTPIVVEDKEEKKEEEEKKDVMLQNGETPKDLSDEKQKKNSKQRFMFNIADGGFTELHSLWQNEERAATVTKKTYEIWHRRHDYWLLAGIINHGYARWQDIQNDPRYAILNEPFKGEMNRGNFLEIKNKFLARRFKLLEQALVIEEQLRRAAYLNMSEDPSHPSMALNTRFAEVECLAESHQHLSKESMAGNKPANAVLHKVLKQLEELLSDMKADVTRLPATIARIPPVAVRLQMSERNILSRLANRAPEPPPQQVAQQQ
UniProt Q14839: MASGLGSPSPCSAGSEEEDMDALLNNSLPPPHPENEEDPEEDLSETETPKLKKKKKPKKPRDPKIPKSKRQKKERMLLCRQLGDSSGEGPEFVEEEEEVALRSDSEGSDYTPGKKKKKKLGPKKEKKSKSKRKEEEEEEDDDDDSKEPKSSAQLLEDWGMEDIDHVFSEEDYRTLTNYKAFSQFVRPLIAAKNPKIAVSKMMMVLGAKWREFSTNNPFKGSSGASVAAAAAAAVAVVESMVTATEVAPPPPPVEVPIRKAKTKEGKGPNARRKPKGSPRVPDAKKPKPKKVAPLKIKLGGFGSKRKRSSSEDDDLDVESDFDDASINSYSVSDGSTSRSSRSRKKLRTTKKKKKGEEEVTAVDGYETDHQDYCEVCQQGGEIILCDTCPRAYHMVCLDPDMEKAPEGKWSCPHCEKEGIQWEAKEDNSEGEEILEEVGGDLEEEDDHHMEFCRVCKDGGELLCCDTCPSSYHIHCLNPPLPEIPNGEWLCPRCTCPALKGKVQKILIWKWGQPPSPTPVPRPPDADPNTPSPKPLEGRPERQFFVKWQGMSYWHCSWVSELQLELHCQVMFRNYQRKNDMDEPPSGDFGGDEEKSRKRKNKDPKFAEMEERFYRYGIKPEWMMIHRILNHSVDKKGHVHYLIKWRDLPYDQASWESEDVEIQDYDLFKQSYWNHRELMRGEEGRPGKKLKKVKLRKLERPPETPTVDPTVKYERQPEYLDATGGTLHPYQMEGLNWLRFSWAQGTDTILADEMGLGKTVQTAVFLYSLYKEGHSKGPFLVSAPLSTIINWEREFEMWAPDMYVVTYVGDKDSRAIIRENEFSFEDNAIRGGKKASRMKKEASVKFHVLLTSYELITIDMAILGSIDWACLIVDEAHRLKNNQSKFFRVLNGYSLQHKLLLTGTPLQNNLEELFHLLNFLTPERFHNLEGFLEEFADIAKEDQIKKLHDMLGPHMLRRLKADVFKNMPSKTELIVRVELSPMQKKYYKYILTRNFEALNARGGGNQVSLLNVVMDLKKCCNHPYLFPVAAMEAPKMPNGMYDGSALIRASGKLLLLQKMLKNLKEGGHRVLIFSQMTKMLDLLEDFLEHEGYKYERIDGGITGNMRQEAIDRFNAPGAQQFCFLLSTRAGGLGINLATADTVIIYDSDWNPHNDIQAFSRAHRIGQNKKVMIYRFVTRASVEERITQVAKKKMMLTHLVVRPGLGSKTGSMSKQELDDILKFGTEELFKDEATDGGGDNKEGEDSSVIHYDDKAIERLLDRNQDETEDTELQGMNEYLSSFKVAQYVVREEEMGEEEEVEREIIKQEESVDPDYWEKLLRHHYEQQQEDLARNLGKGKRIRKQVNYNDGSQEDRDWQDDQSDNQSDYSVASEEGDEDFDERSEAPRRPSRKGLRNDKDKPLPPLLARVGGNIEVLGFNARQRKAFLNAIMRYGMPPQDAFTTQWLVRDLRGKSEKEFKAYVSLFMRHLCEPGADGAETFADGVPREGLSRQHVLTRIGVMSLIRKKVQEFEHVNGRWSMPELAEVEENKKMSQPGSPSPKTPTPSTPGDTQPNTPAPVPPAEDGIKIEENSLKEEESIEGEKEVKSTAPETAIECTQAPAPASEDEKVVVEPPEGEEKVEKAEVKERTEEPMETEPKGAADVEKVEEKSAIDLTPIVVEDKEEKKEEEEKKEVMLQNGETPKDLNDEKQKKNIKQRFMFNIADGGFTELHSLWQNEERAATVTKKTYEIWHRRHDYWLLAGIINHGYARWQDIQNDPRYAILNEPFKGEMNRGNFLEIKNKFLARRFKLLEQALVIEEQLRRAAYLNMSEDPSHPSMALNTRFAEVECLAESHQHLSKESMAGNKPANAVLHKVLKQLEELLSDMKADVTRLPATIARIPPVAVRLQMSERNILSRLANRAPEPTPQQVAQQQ
UniProt Q3URK3: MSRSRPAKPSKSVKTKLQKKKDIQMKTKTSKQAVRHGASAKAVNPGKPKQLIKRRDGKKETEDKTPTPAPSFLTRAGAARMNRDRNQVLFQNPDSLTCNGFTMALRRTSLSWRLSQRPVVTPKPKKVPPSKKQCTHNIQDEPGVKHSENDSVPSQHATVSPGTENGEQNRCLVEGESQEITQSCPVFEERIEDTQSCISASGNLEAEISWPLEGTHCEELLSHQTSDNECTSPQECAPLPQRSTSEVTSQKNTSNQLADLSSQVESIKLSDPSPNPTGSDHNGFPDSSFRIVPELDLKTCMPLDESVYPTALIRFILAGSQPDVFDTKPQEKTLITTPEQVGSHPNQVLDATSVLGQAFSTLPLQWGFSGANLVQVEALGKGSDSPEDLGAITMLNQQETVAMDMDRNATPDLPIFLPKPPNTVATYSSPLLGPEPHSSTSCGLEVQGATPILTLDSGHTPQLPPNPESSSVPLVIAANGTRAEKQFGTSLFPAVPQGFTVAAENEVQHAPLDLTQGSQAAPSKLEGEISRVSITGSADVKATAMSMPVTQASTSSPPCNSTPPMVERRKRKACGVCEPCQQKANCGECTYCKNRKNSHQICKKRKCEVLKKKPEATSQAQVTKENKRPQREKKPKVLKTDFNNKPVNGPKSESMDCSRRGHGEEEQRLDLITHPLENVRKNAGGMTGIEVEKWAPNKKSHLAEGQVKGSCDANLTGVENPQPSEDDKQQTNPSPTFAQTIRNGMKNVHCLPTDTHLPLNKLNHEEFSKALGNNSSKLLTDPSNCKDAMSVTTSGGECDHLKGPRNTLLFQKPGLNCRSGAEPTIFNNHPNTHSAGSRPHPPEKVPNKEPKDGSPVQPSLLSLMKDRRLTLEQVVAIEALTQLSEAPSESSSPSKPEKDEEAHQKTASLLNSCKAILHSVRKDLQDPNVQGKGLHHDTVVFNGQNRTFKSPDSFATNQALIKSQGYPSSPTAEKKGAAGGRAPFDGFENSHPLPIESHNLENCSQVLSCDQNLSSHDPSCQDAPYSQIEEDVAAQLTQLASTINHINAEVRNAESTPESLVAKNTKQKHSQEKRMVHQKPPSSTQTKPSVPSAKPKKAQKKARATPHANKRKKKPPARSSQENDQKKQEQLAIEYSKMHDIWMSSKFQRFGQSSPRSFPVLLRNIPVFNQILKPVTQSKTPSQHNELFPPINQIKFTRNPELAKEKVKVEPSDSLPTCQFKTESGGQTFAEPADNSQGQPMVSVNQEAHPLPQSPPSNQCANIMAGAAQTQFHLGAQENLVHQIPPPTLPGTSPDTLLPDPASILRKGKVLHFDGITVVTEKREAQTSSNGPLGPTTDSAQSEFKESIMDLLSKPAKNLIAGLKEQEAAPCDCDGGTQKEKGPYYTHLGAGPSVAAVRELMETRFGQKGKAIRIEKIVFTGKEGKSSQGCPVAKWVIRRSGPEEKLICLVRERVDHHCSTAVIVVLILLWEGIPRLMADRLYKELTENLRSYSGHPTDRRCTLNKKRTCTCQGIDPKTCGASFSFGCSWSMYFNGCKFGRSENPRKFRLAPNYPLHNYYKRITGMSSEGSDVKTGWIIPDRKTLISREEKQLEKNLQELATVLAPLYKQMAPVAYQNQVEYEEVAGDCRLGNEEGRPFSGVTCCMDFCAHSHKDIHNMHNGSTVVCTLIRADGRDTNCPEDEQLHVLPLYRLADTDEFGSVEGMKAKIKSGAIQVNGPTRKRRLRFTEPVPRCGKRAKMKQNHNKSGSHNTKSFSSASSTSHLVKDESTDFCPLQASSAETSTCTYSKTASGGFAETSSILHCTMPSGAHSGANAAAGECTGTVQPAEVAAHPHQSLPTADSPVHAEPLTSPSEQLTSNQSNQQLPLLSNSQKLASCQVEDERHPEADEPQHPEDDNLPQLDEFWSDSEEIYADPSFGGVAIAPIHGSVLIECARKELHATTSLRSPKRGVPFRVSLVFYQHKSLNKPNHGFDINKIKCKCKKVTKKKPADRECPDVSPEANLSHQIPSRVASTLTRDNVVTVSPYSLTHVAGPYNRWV

Legend:
[1] = biological target: Chd4 (endogenous in mouse ESCs) (mouse (endogenous in V6.5 ESCs)) (UniProt Q6PDQ2); assay: co-IP; wild type ESC nuclear extracts treated with benzonase; anti-Chd4 antibody; western blot; Tet1-/- ESCs as negative control
[2] = biological target: Chd4 in HEK293T cells (UniProt Q14839); assay: co-IP; HEK293T cells exogenously expressing Tet1-FL; anti-Chd4 antibody; empty vector cells as negative control

Row | binding [1] | binding [2] | Substance
1 | binds weakly |  | Tet1 (wild type, endogenous in Tet1+/+ ESCs) (from UniProt Q3URK3 1-2039)
2 |  | binds weakly | full length Tet1 (Tet1-FL), exogenously expressed in HEK293T cells (from UniProt Q3URK3 1-2039)
